Counter-ions that a name gives are not always drawn.
Legend:
[1] = system: TC-71 cells; experiment: cells; settings: Homo sapiens, TC-71, 24 h, read-out: EC50 (concentration of drug that inhibits growth of the tumor cells by 50% as compared to vehicle-treated control)
Excerpt: (§1) The combination index (CI) accounts for the dose response of single drugs to determine the combination effect. […] Enzyme Regul. 22:27-55. The equation for calculating CI is as follows: […]

[2] = system: TC-32 cells; experiment: cells; settings: Homo sapiens, TC-32, 24 h, read-out: EC50 (concentration of drug that inhibits growth of the tumor cells by 50% as compared to vehicle-treated control)
Excerpt: as §1

Cc1ccc(NC(=O)c2ccc(CN3CCN(C)CC3)cc2)cc1Nc1nccc(-c2cccnc2)n1 [imatinib, imatinib mesylate]
EC50 [1]: 23.7 µM | EC50 [2]: 44.4 µM
